Some of these results come from one statement about several compounds together. For at least one compound, name, drawing or mass did not settle the structure.
Tested on: Phytophthora infestans
Format: cell-based
Details: P. infestans, FIG. 7A; more effective than linalool

C=C(C)[C@@H]1CC=C(CO)CC1 [perilla alcohol]
effectiveness against spore germination relative to linalool: 2 to 3 fold

CC1(C)C2CC=C(CO)C1C2 (centres unmarked) [myrtenol]
effectiveness against spore germination relative to linalool: 2 to 3 fold

Source: US20090031455A1 (priority 2004, published 2009)
